Patent US20240034785A1, “RXR-ALPHA BINDERS AND RXR-ALPHA/PLK1 MODULATORS” (NUCMITO PHARMACEUTICALS CO. LTD., priority 2020, published 2024)
Results are given in words; binding and its absence hold for the method and conditions named. Binding seen in cells or lysates may run through a third protein. Some results given as binding are weak or reduced against the parent protein; the word gives no strength. Each block holds one molecule with its values, some of them ahead of it.

What was measured:
[1] = target: T1, retinoic acid receptor-γ (RARγ) (UniProt P13631); test: CoIP of Myc-RXRα and FLAG-RARγ in HeLa cells with or without compound A1 (10 µM, 3 hr) (FIG. 55)
T1 sequence (looked up): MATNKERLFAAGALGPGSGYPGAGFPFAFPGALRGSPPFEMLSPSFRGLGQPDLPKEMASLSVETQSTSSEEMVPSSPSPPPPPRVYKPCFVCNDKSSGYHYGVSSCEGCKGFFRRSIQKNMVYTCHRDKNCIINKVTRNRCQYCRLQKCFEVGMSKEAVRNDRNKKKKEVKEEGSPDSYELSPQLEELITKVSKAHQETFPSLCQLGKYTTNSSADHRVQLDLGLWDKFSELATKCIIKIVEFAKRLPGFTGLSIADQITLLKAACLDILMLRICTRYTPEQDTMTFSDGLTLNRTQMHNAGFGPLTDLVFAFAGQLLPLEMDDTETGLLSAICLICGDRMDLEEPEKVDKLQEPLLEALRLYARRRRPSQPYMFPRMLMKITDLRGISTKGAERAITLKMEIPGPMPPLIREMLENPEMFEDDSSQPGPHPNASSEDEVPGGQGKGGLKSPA

[2] = target: T2, regular 55 kDa RXRα (unmodified form) (human, UniProt P19793 1-462); test: CoIP of Myc-RXRα with FLAG-RARγ in HeLa cells, western blot (FIG. 1)
T2 construct: Non-shifted band of RXRα; Endogenous and tagged (Myc, FLAG, GST) forms are merged; also called regular RXRα; GST-RXRα (not phosphorylated)
T2 sequence: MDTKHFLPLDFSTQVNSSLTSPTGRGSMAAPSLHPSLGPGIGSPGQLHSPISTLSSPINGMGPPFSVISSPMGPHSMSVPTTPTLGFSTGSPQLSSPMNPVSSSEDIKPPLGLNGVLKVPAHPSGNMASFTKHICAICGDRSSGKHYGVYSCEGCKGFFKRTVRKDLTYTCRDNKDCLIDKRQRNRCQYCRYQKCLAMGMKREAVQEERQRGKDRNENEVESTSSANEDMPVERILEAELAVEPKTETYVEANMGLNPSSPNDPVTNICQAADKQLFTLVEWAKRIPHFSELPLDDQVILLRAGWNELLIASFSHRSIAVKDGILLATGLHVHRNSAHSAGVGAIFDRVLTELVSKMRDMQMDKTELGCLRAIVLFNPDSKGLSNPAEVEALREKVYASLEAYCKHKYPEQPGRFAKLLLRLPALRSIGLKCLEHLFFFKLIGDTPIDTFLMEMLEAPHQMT

[3] = target: T1, retinoic acid receptor-γ (RARγ); test: CoIP in HeLa cells (FIG. 4)
[4] = target: T1, retinoic acid receptor-γ (RARγ); test: CoIP in HeLa cells (FIG. 5)

B1: retinoic acid receptor-γ (RARγ) (receptor, UniProt P13631 1-454, looked up)
chain: MATNKERLFAAGALGPGSGYPGAGFPFAFPGALRGSPPFEMLSPSFRGLGQPDLPKEMASLSVETQSTSSEEMVPSSPSPPPPPRVYKPCFVCNDKSSGYHYGVSSCEGCKGFFRRSIQKNMVYTCHRDKNCIINKVTRNRCQYCRLQKCFEVGMSKEAVRNDRNKKKKEVKEEGSPDSYELSPQLEELITKVSKAHQETFPSLCQLGKYTTNSSADHRVQLDLGLWDKFSELATKCIIKIVEFAKRLPGFTGLSIADQITLLKAACLDILMLRICTRYTPEQDTMTFSDGLTLNRTQMHNAGFGPLTDLVFAFAGQLLPLEMDDTETGLLSAICLICGDRMDLEEPEKVDKLQEPLLEALRLYARRRRPSQPYMFPRMLMKITDLRGISTKGAERAITLKMEIPGPMPPLIREMLENPEMFEDDSSQPGPHPNASSEDEVPGGQGKGGLKSPA
- binding [2]: binds

B3: RXRα mutant lacking the N-terminal A/B domain (receptor)
chain: CAICGDRSSGKHYGVYSCEGCKGFFKRTVRKDLTYTCRDNKDCLIDKRQRNRCQYCRYQKCLAMGMKREAVQEERQRGKDRNENEVESTSSANEDMPVERILEAELAVEPKTETYVEANMGLNPSSPNDPVTNICQAADKQLFTLVEWAKRIPHFSELPLDDQVILLRAGWNELLIASFSHRSIAVKDGILLATGLHVHRNSAHSAGVGAIFDRVLTELVSKMRDMQMDKTELGCLRAIVLFNPDSKGLSNPAEVEALREKVYASLEAYCKHKYPEQPGRFAKLLLRLPALRSIGLKCLEHLFFFKLIGDTPIDTFLMEMLEAPHQMT
notes: also called RXRα-AA/B (so in the source)
- binding [4]: binds

Second part, the molecule after the results:

- binding [1]: binds
Molecule: regular 55 kDa RXRα (unmodified form) (from UniProt P19793 1-462) (receptor)

- binding [3]: binds
B2: RXRα-LBD (ligand-binding domain of RXRα) (receptor)
chain: TSSANEDMPVERILEAELAVEPKTETYVEANMGLNPSSPNDPVTNICQAADKQLFTLVEWAKRIPHFSELPLDDQVILLRAGWNELLIASFSHRSIAVKDGILLATGLHVHRNSAHSAGVGAIFDRVLTELVSKMRDMQMDKTELGCLRAIVLFNPDSKGLSNPAEVEALREKVYASLEAYCKHKYPEQPGRFAKLLLRLPALRSIGLKCLEHLFFFKLIGDTPIDTFLMEMLEAPHQMT
notes: also called LBD of RXRα
